This note sets out measurements from paper PMC7810988, “Inositol pyrophosphates promote the interaction of SPX domains with the coiled-coil motif of PHR transcription factors to regulate plant phosphate homeostasis” (Nature Communications, 2021).

The chains behind the UniProt entries cited, without tags or fusion partners. Where a name states a change or a piece, a line headed by the entry shows the natural chain unless it says otherwise.
UniProt Q6Z156: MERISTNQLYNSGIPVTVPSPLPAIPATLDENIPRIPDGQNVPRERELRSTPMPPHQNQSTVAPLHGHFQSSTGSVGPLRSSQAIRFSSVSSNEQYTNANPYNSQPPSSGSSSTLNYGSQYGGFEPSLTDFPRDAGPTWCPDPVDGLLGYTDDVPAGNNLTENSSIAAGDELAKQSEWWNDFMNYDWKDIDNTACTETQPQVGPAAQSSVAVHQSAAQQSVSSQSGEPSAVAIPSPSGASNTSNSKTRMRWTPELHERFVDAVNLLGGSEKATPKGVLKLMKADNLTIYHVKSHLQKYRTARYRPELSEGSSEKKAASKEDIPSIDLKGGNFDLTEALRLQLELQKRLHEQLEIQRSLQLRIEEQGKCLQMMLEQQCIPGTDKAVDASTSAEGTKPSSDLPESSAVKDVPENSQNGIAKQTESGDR

This series deals with OsPHR2 (UniProt Q6Z156). Put plainly: GCI. The conditions noted are these: 4 C, 200 mM NaCl, Kd only in figure; GCI at 4 C: AtPHR1 in 20 mM HEPES pH 7.5, 300 mM NaCl; OsPHR2 in 20 mM HEPES pH 7.9, 200 mM NaCl; recombinant protein; residues 1-426; protein details: His8-Strep-GB1 N-terminal, TEV-cleaved; label: 5'-biotin on strand 1.

For at least one entry, the source does not settle the construct or the ends of the probe. At least one verdict was read from the data and is not stated in words by the source.

In the case of “TAATGCTCGCCGCATATCCTTTGGTAGATA (double strand) [pOsIPS1 biotin]”, the binding result was “binds”.
